Laboratory results from patent US10865191B2, “Heterocyclic compounds useful as modulators of TNF alpha” (BRISTOL-MYERS SQUIBB COMPANY, priority 2015, dated 2020).
Some of these results come from one statement about several compounds together.

By UniProt entry, the sequences of proteins in these tests, tags left out. Residues count along the entry.
UniProt P01375, 77-233 limits assumed: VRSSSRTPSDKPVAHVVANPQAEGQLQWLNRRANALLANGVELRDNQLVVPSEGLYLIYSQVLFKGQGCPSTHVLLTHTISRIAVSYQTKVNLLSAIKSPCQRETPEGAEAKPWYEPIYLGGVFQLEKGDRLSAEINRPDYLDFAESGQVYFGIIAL

Biological target: TNFα (Homo sapiens, UniProt P01375)
Experiment: TNF induced HEK-Blue assay (NF-kB-driven secreted alkaline phosphatase reporter)
Format: cell-based
Settings: TNFα 0.5 ng/mL, HEK-Blue-CD40L cells, 18 h; read-out: IC50 values measured in the TNF induced HEK-Blue assay
Experimental: TNF or CD40L-Induced HEK-Blue Assay
Test compounds serially diluted in DMSO were plated in an assay plate (LABCYTE, Cat. # LP-0200) at final concentrations ranging from 0.004 μM to 25 μM. TNFα (final concentration 0.5 ng/mL) or CD40L (final concentration 30 ng/mL) in assay buffer [DMEM, 4.5 g/l glucose (Gibco, Cat. 21063-029), 10% FBS (Sigma, F4135), 1% Penicillin-Streptomycin (Gibco, Cat. 15140-122), 1% Anti-Anti (Gibco, Cat. 15240-112) and 2 mM L-glutamine (Gibco, Cat. 25030-081)] was then added to the assay plate. After a 30 minute pre-incubation at 37° C. and 5% CO2, HEK-Blue™-CD40L cells (INVIVOGEN, Cat. Code hkb-cd40) containing a NF-kB-driven secreted alkaline phosphatase reporter gene were seeded into the assay plate at a density of 20,000 cells per well. This plate was then incubated for 18 h at 37° C. and 5% CO2. Secreted alkaline phosphatase expression was measured using QUANTI-Blue™ (INVIVOGEN, Cat. Code rep-qb1) according to manufacturer's specifications and the assay plate was read on a PerkinElmer Envision at 620 nm.
Inhibition data for the test compound over a range of concentrations was plotted as percentage inhibition of the test compound (100%=maximum inhibition). IC50 values were determined after correcting for background [(sample read-mean of low control)/(mean of high control-mean of low control)] where by the low control is DMSO without stimulation and high control is DMSO with stimulation. The IC50 is defined as the concentration of test compound which produces 50% inhibition and was quantified using the 4 parameter logistic equation to fit the data.

| Structure (SMILES) | IC50 |
| --- | --- |
| CC(Nc1c(Cl)cnc2cc(F)c(-c3cnc(C(C)(C)O)nc3)nc12)c1ccccc1F (racemic) [Example 209, 2-(5-(7-chloro-3-fluoro-8-((1-(2-fluorophenyl)ethyl)amino)-1,5-naphthyridin-2-yl)pyrimidin-2-yl)propan-2-ol] | ≤ 25 µM |
| Cc1nc2ccc(-c3cnc(N4CCOCC4)nc3)cc2c(N[C@H](C)c2cc(C(N)=O)ccc2F)c1Cl [Example 313, (R)-3-(1-((3-chloro-2-methyl-6-(2-morpholinopyrimidin-5-yl)quinolin-4-yl)amino)ethyl)-4-fluorobenzamide] | ≤ 25 µM |
| CC(Nc1c(Cl)cnc2cc(F)c(-c3cnc(C(C)(C)O)nc3)nc12)c1cccc(N)c1 (racemic) [Example 239, 2-(5-(8-((1-(3-aminophenyl)ethyl)amino)-7-chloro-3-fluoro-1,5-naphthyridin-2-yl)pyrimidin-2-yl)propan-2-ol] | ≤ 25 µM |
| OC[C@@H]1CN(c2ncc(-c3ccc4ncc(Cl)c(N[C@@H](c5ccccc5F)C(F)F)c4c3)cn2)CCO1 [Example 87, ((S)-4-(5-(3-chloro-4-(((S)-2,2-difluoro-1-(2-fluorophenyl)ethyl)amino)quinolin-6-yl)pyrimidin-2-yl)morpholin-2-yl)methanol] | ≤ 25 µM |
| Cc1ccc(Br)cc1Nc1c(Cl)c(C)nc2ccccc12 [Example 470, N-(5-bromo-2-methylphenyl)-3-chloro-2-methylquinolin-4-amine] | ≤ 25 µM |
| Cc1nc2ccc(-c3cnc(C(C)(C)O)nc3)cc2c(N[C@H](C)c2cc(O)ccc2F)c1Cl [Example 404, (R)-3-(1-((3-chloro-6-(2-(2-hydroxypropan-2-yl)pyrimidin-5-yl)-2-methylquinolin-4-yl)amino)ethyl)-4-fluorophenol] | ≤ 25 µM |
| C[C@@H](Nc1c(Cl)cnc2ccc(-c3cnc(C(C)(C)O)nc3)cc12)c1cc(CO)ccc1F [Example 430, (R)-2-(5-(3-chloro-4-((1-(2-fluoro-5-(hydroxymethyl)phenyl)ethyl)amino)quinolin-6-yl)pyrimidin-2-yl)propan-2-ol] | ≤ 25 µM |
| Cc1ccc(C)c(Nc2c(Cl)c(CN)nc3ccc(-c4ccc(C#N)nc4)cc23)c1 [Example 43, 5-(2-(aminomethyl)-3-chloro-4-((2,5-dimethylphenyl)amino)quinolin-6-yl)picolinonitrile] | ≤ 25 µM |
| CC(Nc1c(Cl)cnc2ccc(-c3ccc(C(C)(C)O)cc3)cc12)c1ccon1 (racemic) [Example 174, 2-(4-(3-chloro-4-((1-(isoxazol-3-yl)ethyl)amino)quinolin-6-yl)phenyl)propan-2-ol] | ≤ 25 µM |
| Cc1nc2cc(F)c(-c3cnc(C(C)(C)O)nc3)cc2c(N[C@H](C)c2cc(C(N)=O)ccc2F)c1Cl [Example 393, (R)-3-(1-((3-chloro-7-fluoro-6-(2-(2-hydroxypropan-2-yl)pyrimidin-5-yl)-2-methylquinolin-4-yl)amino)ethyl)-4-fluorobenzamide] | ≤ 25 µM |
| C[C@@H](Nc1c(Cl)cnc2cc(F)c(-c3cnc(C(C)(C)O)nc3)nc12)c1cc(C(O)CO)ccc1F (stereo partly drawn) [Example 504, 1-(3-((R)-1-((3-chloro-7-fluoro-6-(2-(2-hydroxypropan-2-yl)pyrimidin-5-yl)-1,5-naphthyridin-4-yl)amino)ethyl)-4-fluorophenyl)ethane-1,2-diol] | ≤ 25 µM |
| C[C@@H](Nc1c(Cl)cnc2ccc(-c3cnc(C4(O)COC4)nc3)cc12)c1ccccc1F [Example 227, (R)-3-(5-(3-chloro-4-((1-(2-fluorophenyl)ethyl)amino)quinolin-6-yl)pyrimidin-2-yl)oxetan-3-ol] | ≤ 25 µM |
| CC(Nc1c(Cl)cnc2ccc(-c3cnc(C(C)(C)O)nc3)cc12)[C@H]1CCCN(CC(O)CO)C1 (stereo partly drawn) [Example 106, 3-((S)-3-((S)-1-((3-chloro-6-(2-(2-hydroxypropan-2-yl)pyrimidin-5-yl)quinolin-4-yl)amino)ethyl)piperidin-1-yl)propane-1,2-diol] | ≤ 25 µM |
